Record: PubChem BioAssay AID1053208 (Peter MacCallum Cancer Centre, 2014)

Assay: 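Find knock-downs that sensitise mouse osteosarcoma cells to doxorubicin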 (primary screen)
Cells: mouse osteosarcoma cells, early-passage culture from an engineered mouse model of fibroblastic bone tumour
Reagent: siRNA pool against mouse genes, 40 nM
Time to read-out: about 120 h (48 h before drug, then 72 h with drug)
Challenge: doxorubicin 100 nM for 72 h, roughly 30-40% inhibitory dose
Detection: 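Viability read as ATP luminescence after 72 h of 100 nM doxorubicin or none, duplicate wells averaged, scaled to non-targeting siRNA, then expressed as robust z-scores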
Scale: viability z-score with doxorubicin and doxorubicin viability vs non-targeting: higher = more viable cells under doxorubicin; viability z-score without drug: higher = more viable cells with knock-down alone; z-score of drug to no-drug ratio: higher = less drug sensitisation by knock-down
Hit rule: 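a pool counts as active when its viability z-score with doxorubicin is -2 or below and its z-score without drug lies between -2 and 2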
Here is a random part of about 17,000 deposited reagents. 788 of all reagents (4.7%) count as active. 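Calls rest on z-score classes alone; an extra cut-off of viability at most 70% of control was not applied to them.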 Entries without a mark were called inactive.

The first 2 records as a preview:
Gene | PubChem SID | combined z-score class | viability z-score with doxorubicin | viability z-score without drug | z-score of drug to no-drug ratio | doxorubicin viability vs non-targeting
Rbm48 (GeneID 269623) | SID152336530 | no change with or without drug | -0.45 | -1.18 | 0.45 | 0.9
Plk5 (GeneID 216166) | SID152264403 | no change with or without drug | -1.8 | 0 | -1.8 | 0.78

Main list, from the start:
Gene | PubChem SID | combined z-score class | viability z-score with doxorubicin | viability z-score without drug | z-score of drug to no-drug ratio | doxorubicin viability vs non-targeting
Rbm48 (GeneID 269623) | SID152336530 | no change with or without drug | -0.45 | -1.18 | 0.45 | 0.9
Plk5 (GeneID 216166) | SID152264403 | no change with or without drug | -1.8 | 0 | -1.8 | 0.78
Klhdc7a (GeneID 242721) | SID152284643 | no change with or without drug | 0.22 | -1.01 | 1.12 | 0.96
Islr (GeneID 26968) | SID152304793 | no change with or without drug | -1.57 | -0.51 | -1.24 | 0.8
Ccser2 (GeneID 72972) | SID152292045 | no change with or without drug | 0.45 | 0.84 | 0 | 0.98
Gmds (GeneID 218138) | SID152325274 | no change with or without drug | -1.12 | -1.18 | -0.34 | 0.84
Rps13 (GeneID 68052) | SID152315688 | low cell count with and without drug | -7.53 | -7.93 | -4.72 | 0.27
Slc6a13 (GeneID 14412) | SID152333236 | no change with or without drug | 0.67 | 1.52 | -0.22 | 1
Hps6 (GeneID 20170) | SID152304123 | low cell count with doxorubicin only (active) | -2.92 | -0.67 | -2.59 | 0.68
Sdccag8 (GeneID 76816) | SID152274932 | high cell count without drug only | 1.69 | 2.19 | 0.34 | 1.09
Or8b35 (GeneID 258413) | SID152338389 | no change with or without drug | -0.9 | -0.67 | -0.34 | 0.86
Rpl36a (GeneID 19982) | SID152260349 | low cell count with and without drug | -5.51 | -5.06 | -3.26 | 0.45
Gdpgp1 (GeneID 269952) | SID152328345 | no change with or without drug | -1.57 | 0.84 | -2.02 | 0.8
Psme3 (GeneID 19192) | SID152280164 | high cell count with and without drug | 2.36 | 2.02 | 1.01 | 1.15
Dhx37 (GeneID 208144) | SID152317089 | no change with or without drug | -0.22 | 0.34 | -0.34 | 0.92
Wdr77 (GeneID 70465) | SID152336255 | no change with or without drug | -0.79 | -0.51 | -0.34 | 0.87
Snapc3 (GeneID 77634) | SID152271035 | no change with or without drug | -1.01 | -1.01 | -0.22 | 0.85
Hipk4 (GeneID 233020) | SID152283043 | no change with or without drug | 0.45 | 0.17 | 0.45 | 0.98
Prss1 (GeneID 114228) | SID152272439 | no change with or without drug | -0.22 | 1.69 | -1.12 | 0.92
Dusp2 (GeneID 13537) | SID152296323 | no change with or without drug | 0.9 | 0.84 | 0.45 | 1.02
